Laboratory results: PubChem BioAssay AID1259254 (NCATS, 2017)
The deposit covers about 59,000 reagents; this is a random part of them. About 1,550 of all reagents (2.6%) were called active. 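G2 share is only a proxy for re-replication; each gene was hit by three separate siRNAs, and active genes were retested.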 A number with no mark means an inactive call. The numbers tell different reagents against one gene apart. Not all columns of the deposit are shown. Not stated in the record: the amount of reagent.

Screen: 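Gene knock-downs that lead to re-replication, shown by excess G2 DNA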 (primary screen)
Cells: human HCT116 colorectal cancer cells
Reagent: single siRNA against human genes
Time to read-out: 3 days
Measurement: 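Nuclei stained with Hoechst and imaged; cell-cycle phase assigned by DNA content; G2 share scaled per plate, non-targeting siRNA 0%, GMNN siRNA 100%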
Scale: G2 robust z-score: higher = more G2 cells, more excess DNA replication
Rule for the call: 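Active siRNAs have a G2 robust z of 5 or more median absolute deviations over the median, which in these data means about 38% or higher of GMNN control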

MMS19 (MMS19 cytosolic iron-sulfur assembly component) #1 showed G2 robust z-score 3.36.
Against MMS19 (MMS19 cytosolic iron-sulfur assembly component) #2 the deposit lists G2 robust z-score -0.768.
Silencing of MMS19 (MMS19 cytosolic iron-sulfur assembly component) #3 gave: G2 robust z-score 0.0501.
After knock-down of SHC4 (SHC adaptor protein 4) #1 the results were G2 robust z-score -0.212.
SHC4 (SHC adaptor protein 4) #2 gave G2 robust z-score 0.909.
SHC4 (SHC adaptor protein 4) #3 showed G2 robust z-score -1.39.
With knock-down of PLPP1 (phospholipid phosphatase 1) #1, the record shows G2 robust z-score -0.386.
Silencing of PLPP1 (phospholipid phosphatase 1) #2 gave: G2 robust z-score -0.687.
Silencing of PLPP1 (phospholipid phosphatase 1) #3 resulted in: G2 robust z-score 3.56.
After knock-down of CLEC7A (C-type lectin domain containing 7A) #1, the record shows G2 robust z-score 0.597.
For CLEC7A (C-type lectin domain containing 7A) #2 the deposit lists G2 robust z-score 2.23.
After knock-down of CLEC7A (C-type lectin domain containing 7A) #3, the record shows G2 robust z-score -0.844.
After knock-down of LCE1C (late cornified envelope 1C) #1, the record shows G2 robust z-score 0.759.
For LCE1C (late cornified envelope 1C) #2 the deposit lists G2 robust z-score -0.228.
Knock-down of LCE1C (late cornified envelope 1C) #3 came out at: G2 robust z-score 2.51.

2 successive reagents from above, quoted:
SHC4 (SHC adaptor protein 4) #2 — G2 robust z-score = 0.909
SHC4 (SHC adaptor protein 4) #3 — G2 robust z-score = -1.39

More results follow.
Depletion of DPY19L2 (dpy-19 like 2) #1 resulted in: G2 robust z-score 0.325.
Against DPY19L2 (dpy-19 like 2) #2 the deposit lists G2 robust z-score -0.156.
DPY19L2 (dpy-19 like 2) #3 showed G2 robust z-score -0.7.
Against PSMD1 (proteasome 26S subunit, non-ATPase 1) #1, the values are G2 robust z-score 5.53 (active).
PSMD1 (proteasome 26S subunit, non-ATPase 1) #2 showed G2 robust z-score 3.58.
For PSMD1 (proteasome 26S subunit, non-ATPase 1) #3, the values are G2 robust z-score 11.3 (active).
With knock-down of C9orf78 (chromosome 9 open reading frame 78) #1, the screen gave G2 robust z-score -0.778.
Against C9orf78 (chromosome 9 open reading frame 78) #2, the values are G2 robust z-score 3.28.
Against C9orf78 (chromosome 9 open reading frame 78) #3, the entry reads G2 robust z-score 0.395.
